# Assay results taken from US20040214221A1, “High density labeling of DNA with modified or "chromophore" carrying nucleotides and DNA polymerases used” (priority 1999, published 2004).
# At least one structure is not confirmed: it was looked up by name or label, or the drawing left a doubt.
# Tested on: Expand™ High Fidelity PCR System (blend of Taq and Pwo polymerase)
# Assay: PCR with natural dNTP completely replaced by derivative, Expand High Fidelity
# Assay type: biochemical
# Conditions: Expand Hifi, 200 μM each dNTP, product band on 2% agarose gel = acceptance
Structure (SMILES),"PCR product formed, productlength 264 bp","PCR product formed, productlength 517 bp"
O=C(CCCCCNC(=O)CCCNC(=O)CCCC[C@@H]1SC[C@@H]2NC(=O)N[C@@H]21)NC/C=C/c1cn([C@H]2C[C@H](O)[C@@H](COP(=O)(O)OP(=O)(O)OP(=O)(O)O)O2)c(=O)[nH]c1=O [Biotin-16-dUTP],+,+
Cc1c(CC(=O)NCCCCCC(=O)NC/C=C/c2cn([C@H]3C[C@H](O)[C@@H](COP(=O)(O)OP(=O)(O)OP(=O)(O)O)O3)c(=O)[nH]c2=O)c(=O)oc2cc(N)ccc12 [AMCA-6-dUTP],+,−
"CCCCC#Cc1cn([C@H]2C[C@H](O)[C@@H](COP(=O)(O)OP(=O)(O)OP(=O)(O)O)O2)c2ncnc(N)c12 [Hex^7c^7Ad, 7-Hexinyl-7-Desaza-dATP]",+,+
